Article PMC8980813
Results are given in words; binding and its absence hold for the method and conditions named. Binding seen in cells or lysates may run through a third protein.

Target: T1, Strep-METTL6 (human) (UniProt Q8TCB7)
T1 sequence: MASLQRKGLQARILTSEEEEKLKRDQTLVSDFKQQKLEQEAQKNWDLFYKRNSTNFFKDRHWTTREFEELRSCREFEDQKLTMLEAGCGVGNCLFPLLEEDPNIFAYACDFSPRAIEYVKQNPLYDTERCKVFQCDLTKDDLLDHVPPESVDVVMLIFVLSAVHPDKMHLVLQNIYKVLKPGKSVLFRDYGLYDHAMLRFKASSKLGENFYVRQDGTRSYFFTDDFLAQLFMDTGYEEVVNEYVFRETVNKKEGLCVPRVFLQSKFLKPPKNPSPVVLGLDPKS
Test: pull-down

binding: no binding
B1: endogenous mitochondrial seryl-tRNA synthetase (SARS2) (enzyme, UniProt Q9NP81 35-518)
chain: TTEKRNRNLLYEYAREGYSALPQLDIERFCACPEEAAHALELRKGELRSADLPAIISTWQELRQLQEQIRSLEEEKAAVTEAVRALLANQDSGEVQQDPKYQGLRARGREIRKELVHLYPREAQLEEQFYLQALKLPNQTHPDVPVGDESQARVLHMVGDKPVFSFQPRGHLEIGEKLDIIRQKRLSHVSGHRSYYLRGAGALLQHGLVNFTFNKLLRRGFTPMTVPDLLRGAVFEGCGMTPNANPSQIYNIDPARFKDLNLAGTAEVGLAGYFMDHTVAFRDLPVRMVCSSTCYRAETNTGQEPRGLYRVHHFTKVEMFGVTGPGLEQSSQLLEEFLSLQMEILTELGLHFRVLDMPTQELGLPAYRKFDIEAWMPGRGRFGEVTSASNCTDFQSRRLHIMFQTEAGELQFAHTVNATACAVPRLLIALLESNQQKDGSVLVPPALQSYLGTDRITAPTHVPLQYIGPNQPRKPGLPGQPAVS
